According to the supplement of paper PMC6411743:
± gives the standard deviation of the averaged measurements. The list shows a part of the results, in another mix than the full data.

Sequences of proteins named here, by UniProt entry; tags and fusion partners are left off. A change or cut given only in a name is not applied to a line headed by its entry.
UniProt Q76I76: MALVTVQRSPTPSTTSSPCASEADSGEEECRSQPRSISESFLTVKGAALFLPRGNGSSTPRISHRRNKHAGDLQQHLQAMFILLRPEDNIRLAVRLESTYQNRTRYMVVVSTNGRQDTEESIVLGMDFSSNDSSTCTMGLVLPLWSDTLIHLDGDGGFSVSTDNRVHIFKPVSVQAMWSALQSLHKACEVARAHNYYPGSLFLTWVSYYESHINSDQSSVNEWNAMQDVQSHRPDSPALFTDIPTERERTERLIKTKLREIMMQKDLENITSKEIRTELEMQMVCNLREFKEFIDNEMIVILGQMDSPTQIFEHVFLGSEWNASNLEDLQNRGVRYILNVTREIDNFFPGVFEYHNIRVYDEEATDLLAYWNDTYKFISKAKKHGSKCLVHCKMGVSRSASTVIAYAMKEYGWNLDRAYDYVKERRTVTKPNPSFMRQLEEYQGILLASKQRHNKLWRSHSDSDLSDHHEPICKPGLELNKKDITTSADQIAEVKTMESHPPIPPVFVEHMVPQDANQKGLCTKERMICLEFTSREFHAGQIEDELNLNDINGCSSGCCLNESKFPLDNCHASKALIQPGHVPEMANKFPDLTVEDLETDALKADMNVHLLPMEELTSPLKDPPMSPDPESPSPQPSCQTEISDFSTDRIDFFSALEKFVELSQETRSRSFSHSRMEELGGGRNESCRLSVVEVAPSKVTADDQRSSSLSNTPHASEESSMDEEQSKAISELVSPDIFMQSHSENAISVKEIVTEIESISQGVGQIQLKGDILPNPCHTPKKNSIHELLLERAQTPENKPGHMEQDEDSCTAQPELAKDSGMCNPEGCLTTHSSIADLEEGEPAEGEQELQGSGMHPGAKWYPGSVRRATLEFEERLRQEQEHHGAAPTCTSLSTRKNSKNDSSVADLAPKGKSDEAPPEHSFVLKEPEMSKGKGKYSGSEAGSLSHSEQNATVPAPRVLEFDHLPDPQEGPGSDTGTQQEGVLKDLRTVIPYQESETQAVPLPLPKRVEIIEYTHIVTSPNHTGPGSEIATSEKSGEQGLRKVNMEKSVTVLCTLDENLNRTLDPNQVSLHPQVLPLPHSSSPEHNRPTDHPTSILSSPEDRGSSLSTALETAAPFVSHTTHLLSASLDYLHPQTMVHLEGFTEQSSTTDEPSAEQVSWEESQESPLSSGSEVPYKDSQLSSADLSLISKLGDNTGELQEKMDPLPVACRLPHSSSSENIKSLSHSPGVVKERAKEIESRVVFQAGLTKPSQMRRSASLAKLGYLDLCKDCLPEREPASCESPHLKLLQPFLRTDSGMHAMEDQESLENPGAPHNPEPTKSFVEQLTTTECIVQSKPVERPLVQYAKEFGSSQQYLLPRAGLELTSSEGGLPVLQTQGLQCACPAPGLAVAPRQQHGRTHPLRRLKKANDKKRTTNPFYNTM
UniProt Q15031: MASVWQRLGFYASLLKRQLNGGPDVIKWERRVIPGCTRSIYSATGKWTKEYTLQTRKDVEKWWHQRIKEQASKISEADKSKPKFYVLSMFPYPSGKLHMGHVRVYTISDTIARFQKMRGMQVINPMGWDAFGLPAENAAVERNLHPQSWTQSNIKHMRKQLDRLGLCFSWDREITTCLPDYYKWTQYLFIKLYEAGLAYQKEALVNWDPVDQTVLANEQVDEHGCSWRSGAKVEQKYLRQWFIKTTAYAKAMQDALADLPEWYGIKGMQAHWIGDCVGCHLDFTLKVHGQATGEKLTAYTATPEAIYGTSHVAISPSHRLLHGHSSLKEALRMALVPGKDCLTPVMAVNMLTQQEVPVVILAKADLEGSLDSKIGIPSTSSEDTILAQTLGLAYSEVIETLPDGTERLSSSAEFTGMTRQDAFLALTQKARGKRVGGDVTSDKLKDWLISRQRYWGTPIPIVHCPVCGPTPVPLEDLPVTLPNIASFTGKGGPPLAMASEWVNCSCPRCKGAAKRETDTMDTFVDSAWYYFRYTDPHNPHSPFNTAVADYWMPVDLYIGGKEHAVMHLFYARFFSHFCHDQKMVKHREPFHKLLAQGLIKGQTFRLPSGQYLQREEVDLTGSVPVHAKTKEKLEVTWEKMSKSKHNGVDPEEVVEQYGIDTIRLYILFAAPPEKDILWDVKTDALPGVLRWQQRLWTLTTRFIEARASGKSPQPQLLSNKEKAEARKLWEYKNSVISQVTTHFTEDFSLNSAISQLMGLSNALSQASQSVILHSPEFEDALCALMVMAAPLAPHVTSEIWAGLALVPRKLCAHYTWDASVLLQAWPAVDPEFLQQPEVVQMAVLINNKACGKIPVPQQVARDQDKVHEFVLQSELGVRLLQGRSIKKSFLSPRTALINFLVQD
UniProt O75347: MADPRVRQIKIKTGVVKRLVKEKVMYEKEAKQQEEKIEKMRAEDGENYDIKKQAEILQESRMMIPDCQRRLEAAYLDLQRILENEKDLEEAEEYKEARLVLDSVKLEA
UniProt P61923: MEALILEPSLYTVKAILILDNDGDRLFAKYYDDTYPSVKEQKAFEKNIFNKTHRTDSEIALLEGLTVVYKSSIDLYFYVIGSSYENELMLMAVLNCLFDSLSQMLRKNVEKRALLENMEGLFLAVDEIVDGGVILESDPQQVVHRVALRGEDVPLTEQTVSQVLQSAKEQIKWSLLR
UniProt O43913: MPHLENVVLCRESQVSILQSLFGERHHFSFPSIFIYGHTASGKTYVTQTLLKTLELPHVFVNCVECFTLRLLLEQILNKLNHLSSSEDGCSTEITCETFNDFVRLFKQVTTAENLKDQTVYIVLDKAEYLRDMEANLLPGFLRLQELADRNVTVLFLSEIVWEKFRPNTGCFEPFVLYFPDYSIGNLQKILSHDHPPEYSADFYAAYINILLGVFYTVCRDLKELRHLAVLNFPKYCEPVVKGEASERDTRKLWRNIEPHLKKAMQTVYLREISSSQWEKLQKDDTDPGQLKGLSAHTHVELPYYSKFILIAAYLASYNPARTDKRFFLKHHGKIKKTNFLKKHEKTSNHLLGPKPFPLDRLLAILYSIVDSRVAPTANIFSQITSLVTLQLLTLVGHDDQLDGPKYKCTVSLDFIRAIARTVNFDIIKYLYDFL
UniProt P63104: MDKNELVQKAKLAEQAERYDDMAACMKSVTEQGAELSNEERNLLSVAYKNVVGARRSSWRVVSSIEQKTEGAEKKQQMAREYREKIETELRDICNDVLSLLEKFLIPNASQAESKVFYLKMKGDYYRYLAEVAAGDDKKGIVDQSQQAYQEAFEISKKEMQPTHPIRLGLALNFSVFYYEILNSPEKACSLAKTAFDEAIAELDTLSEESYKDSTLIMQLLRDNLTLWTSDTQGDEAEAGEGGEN
UniProt Q9Y485, whole entry: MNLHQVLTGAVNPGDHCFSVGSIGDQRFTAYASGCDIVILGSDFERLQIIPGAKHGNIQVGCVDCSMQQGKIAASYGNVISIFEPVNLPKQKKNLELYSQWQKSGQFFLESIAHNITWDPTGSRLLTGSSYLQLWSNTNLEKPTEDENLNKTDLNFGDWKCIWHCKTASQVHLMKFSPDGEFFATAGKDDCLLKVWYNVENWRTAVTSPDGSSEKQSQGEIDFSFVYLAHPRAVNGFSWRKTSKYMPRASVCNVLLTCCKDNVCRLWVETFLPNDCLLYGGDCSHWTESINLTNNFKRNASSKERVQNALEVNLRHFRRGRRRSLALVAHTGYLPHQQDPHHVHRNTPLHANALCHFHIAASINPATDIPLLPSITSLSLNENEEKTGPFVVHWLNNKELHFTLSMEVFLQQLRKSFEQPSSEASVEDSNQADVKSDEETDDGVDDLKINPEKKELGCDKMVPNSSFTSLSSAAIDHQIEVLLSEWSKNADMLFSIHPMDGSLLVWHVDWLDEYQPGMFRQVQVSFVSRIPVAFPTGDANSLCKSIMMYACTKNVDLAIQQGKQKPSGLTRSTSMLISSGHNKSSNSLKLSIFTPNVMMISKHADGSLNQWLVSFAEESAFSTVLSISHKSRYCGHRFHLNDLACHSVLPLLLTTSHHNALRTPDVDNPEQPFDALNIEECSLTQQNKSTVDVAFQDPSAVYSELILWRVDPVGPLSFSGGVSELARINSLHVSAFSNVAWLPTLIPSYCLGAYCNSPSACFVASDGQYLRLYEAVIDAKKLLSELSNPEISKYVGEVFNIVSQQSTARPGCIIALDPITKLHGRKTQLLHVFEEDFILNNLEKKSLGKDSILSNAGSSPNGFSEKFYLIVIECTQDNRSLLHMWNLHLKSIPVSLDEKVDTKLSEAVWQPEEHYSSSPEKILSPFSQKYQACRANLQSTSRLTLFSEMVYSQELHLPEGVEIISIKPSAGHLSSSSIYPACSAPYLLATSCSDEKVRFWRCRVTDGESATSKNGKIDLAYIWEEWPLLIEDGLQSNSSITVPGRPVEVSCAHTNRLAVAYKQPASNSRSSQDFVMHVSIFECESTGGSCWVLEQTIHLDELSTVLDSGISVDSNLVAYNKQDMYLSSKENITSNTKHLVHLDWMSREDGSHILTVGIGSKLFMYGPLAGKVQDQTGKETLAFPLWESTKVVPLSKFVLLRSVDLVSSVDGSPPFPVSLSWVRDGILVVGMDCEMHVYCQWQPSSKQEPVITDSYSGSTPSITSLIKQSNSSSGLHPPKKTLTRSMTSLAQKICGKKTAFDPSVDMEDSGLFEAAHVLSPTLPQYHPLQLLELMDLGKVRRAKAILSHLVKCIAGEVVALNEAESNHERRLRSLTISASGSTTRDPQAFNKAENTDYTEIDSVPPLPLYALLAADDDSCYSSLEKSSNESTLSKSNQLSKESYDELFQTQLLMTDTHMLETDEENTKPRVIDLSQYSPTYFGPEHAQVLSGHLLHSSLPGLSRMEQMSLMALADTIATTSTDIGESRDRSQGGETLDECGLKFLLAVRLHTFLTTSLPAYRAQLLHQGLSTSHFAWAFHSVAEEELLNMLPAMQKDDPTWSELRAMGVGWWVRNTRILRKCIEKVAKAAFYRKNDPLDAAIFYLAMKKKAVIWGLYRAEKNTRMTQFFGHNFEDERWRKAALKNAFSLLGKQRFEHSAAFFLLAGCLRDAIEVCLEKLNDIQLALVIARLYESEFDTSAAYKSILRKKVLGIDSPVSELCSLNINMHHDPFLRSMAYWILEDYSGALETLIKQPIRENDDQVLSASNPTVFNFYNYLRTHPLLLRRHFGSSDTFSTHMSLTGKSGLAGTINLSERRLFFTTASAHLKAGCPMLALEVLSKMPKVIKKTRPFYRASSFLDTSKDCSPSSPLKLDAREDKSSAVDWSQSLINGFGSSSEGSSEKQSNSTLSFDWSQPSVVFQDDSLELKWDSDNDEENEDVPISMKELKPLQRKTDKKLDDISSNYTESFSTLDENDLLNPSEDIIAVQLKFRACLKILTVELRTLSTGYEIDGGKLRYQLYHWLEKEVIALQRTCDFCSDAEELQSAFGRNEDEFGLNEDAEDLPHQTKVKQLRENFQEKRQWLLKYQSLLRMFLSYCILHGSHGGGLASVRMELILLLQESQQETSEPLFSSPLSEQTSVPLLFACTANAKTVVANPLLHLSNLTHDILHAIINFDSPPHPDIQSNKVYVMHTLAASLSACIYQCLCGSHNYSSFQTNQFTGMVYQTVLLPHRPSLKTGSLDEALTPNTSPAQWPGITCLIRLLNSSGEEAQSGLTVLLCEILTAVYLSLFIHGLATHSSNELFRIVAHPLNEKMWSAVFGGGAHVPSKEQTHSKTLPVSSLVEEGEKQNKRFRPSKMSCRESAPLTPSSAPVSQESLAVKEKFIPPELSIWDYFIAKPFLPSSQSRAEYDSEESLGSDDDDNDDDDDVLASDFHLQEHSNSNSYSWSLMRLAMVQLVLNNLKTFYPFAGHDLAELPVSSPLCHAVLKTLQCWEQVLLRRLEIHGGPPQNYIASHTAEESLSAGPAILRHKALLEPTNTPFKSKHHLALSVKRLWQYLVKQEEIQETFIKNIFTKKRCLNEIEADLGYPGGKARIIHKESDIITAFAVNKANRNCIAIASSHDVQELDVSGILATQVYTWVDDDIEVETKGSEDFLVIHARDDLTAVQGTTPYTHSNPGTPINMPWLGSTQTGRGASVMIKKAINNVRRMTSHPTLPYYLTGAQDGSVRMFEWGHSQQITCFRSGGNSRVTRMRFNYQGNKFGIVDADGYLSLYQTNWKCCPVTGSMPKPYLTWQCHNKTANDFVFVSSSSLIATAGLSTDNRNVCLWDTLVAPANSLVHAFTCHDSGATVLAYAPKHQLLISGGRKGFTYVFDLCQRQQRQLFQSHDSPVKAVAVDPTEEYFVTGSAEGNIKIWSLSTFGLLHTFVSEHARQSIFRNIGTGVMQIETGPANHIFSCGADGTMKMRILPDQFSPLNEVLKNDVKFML
UniProt Q9HCU9: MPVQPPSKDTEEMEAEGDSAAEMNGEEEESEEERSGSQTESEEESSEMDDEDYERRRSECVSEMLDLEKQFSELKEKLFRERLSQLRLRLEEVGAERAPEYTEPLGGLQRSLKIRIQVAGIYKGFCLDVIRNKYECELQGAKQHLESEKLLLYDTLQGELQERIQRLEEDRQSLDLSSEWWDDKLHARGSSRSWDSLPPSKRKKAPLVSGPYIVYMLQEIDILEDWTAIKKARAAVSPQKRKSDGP

Compound: Nc1ncnc2c1ncn2[C@@H]1O[C@H](COP(=O)(O)OP(=O)(O)NP(=O)(O)O)[C@@H](O)[C@H]1O [adenylyl imidodiphosphate]
Assay: NP40-soluble protein abundance relative to vehicle (solubility fold change) (ratio); higher = more soluble protein in presence of AMP-PNP
In short: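 Values are fold changes against the detergent-processed vehicle, based on vsn-normalised intensities. Jurkat crude lysate was treated at eight concentrations from 0.1 to 10 mM (10 min at room temperature, then 3 min at 37 °C), solubilised with 0.8% NP40 and benzonase, ultracentrifuged and analysed by TMT-labelled LC-MS/MS over three independent experiments.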

F5H527 and related entries (UniProt Q76I76)
NP40-soluble protein abundance (concentration: 1mM): 1 ± 0.025 | NP40-soluble protein abundance (concentration: 2mM): 1.03 ± 0.047 | NP40-soluble protein abundance (concentration: 4mM): 1.02 ± 0.044 | NP40-soluble protein abundance (concentration: 6mM): 1.014 ± 0.006 | NP40-soluble protein abundance (concentration: 8mM): 1.01 ± 0.037 | NP40-soluble protein abundance (concentration: 10mM): 1.01 ± 0.028

E7EQV9 and related entries (UniProt P61313)
NP40-soluble protein abundance (concentration: 1mM): 1.06 ± 0.1 | NP40-soluble protein abundance (concentration: 2mM): 0.959 ± 0.067 | NP40-soluble protein abundance (concentration: 4mM): 0.945 ± 0.07 | NP40-soluble protein abundance (concentration: 6mM): 0.92 ± 0.039 | NP40-soluble protein abundance (concentration: 8mM): 0.803 ± 0.046 | NP40-soluble protein abundance (concentration: 10mM): 0.985 ± 0.14

G3V1P3 and related entries (UniProt Q969J3+G3V1P3)
NP40-soluble protein abundance (concentration: 1mM): 0.942 ± 0.042 | NP40-soluble protein abundance (concentration: 2mM): 0.988 ± 0.058 | NP40-soluble protein abundance (concentration: 4mM): 0.965 ± 0.027 | NP40-soluble protein abundance (concentration: 6mM): 0.974 ± 0.055 | NP40-soluble protein abundance (concentration: 8mM): 0.997 ± 0.028 | NP40-soluble protein abundance (concentration: 10mM): 0.982 ± 0.038

E9PHM2 and related entries (UniProt Q15031)
NP40-soluble protein abundance (concentration: 1mM): 0.984 ± 0.024 | NP40-soluble protein abundance (concentration: 2mM): 0.916 ± 0.069 | NP40-soluble protein abundance (concentration: 4mM): 0.975 ± 0.021 | NP40-soluble protein abundance (concentration: 6mM): 0.97 ± 0.032 | NP40-soluble protein abundance (concentration: 8mM): 0.978 ± 0.019 | NP40-soluble protein abundance (concentration: 10mM): 0.954 ± 0.027

F5H8H2 and related entries (UniProt Q03426)
NP40-soluble protein abundance (concentration: 1mM): 0.987 ± 0.025 | NP40-soluble protein abundance (concentration: 2mM): 0.934 ± 0.068 | NP40-soluble protein abundance (concentration: 4mM): 0.958 ± 0.039 | NP40-soluble protein abundance (concentration: 6mM): 0.919 ± 0.0089 | NP40-soluble protein abundance (concentration: 8mM): 0.935 ± 0.032 | NP40-soluble protein abundance (concentration: 10mM): 0.916 ± 0.017

E5RIW3 and related entries (UniProt O75347)
NP40-soluble protein abundance (concentration: 1mM): 1.11 ± 0.022 | NP40-soluble protein abundance (concentration: 2mM): 1.1 ± 0.06 | NP40-soluble protein abundance (concentration: 4mM): 1.05 ± 0.027 | NP40-soluble protein abundance (concentration: 6mM): 0.995 ± 0.05 | NP40-soluble protein abundance (concentration: 8mM): 0.964 ± 0.012 | NP40-soluble protein abundance (concentration: 10mM): 0.939 ± 0.1

F8VVA7 and related entries (UniProt P61923)
NP40-soluble protein abundance (concentration: 1mM): 1.08 ± 0.073 | NP40-soluble protein abundance (concentration: 2mM): 1.08 ± 0.057 | NP40-soluble protein abundance (concentration: 4mM): 1.05 ± 0.09 | NP40-soluble protein abundance (concentration: 6mM): 0.967 ± 0.077 | NP40-soluble protein abundance (concentration: 8mM): 0.959 ± 0.076 | NP40-soluble protein abundance (concentration: 10mM): 0.984 ± 0.11

F8W060 and related entries (UniProt Q9BZF1)
NP40-soluble protein abundance (concentration: 1mM): 0.988 ± 0.022 | NP40-soluble protein abundance (concentration: 2mM): 0.992 ± 0.013 | NP40-soluble protein abundance (concentration: 4mM): 0.9902 ± 0.0052 | NP40-soluble protein abundance (concentration: 6mM): 0.944 ± 0.031 | NP40-soluble protein abundance (concentration: 8mM): 0.934 ± 0.013 | NP40-soluble protein abundance (concentration: 10mM): 0.955 ± 0.013

G3V0H0 and related entries (UniProt O43913)
NP40-soluble protein abundance (concentration: 1mM): 0.9472 ± 0.007 | NP40-soluble protein abundance (concentration: 2mM): 0.88 ± 0.088 | NP40-soluble protein abundance (concentration: 4mM): 0.944 ± 0.06 | NP40-soluble protein abundance (concentration: 6mM): 0.946 ± 0.033 | NP40-soluble protein abundance (concentration: 8mM): 0.957 ± 0.024 | NP40-soluble protein abundance (concentration: 10mM): 0.949 ± 0.036

F5GZY7 and related entries (UniProt Q9H0R8)
NP40-soluble protein abundance (concentration: 1mM): 0.98 ± 0.018 | NP40-soluble protein abundance (concentration: 2mM): 0.931 ± 0.083 | NP40-soluble protein abundance (concentration: 4mM): 0.972 ± 0.064 | NP40-soluble protein abundance (concentration: 6mM): 0.991 ± 0.043 | NP40-soluble protein abundance (concentration: 8mM): 0.984 ± 0.053 | NP40-soluble protein abundance (concentration: 10mM): 0.947 ± 0.041

E7EVZ2 and related entries (UniProt P63104)
NP40-soluble protein abundance (concentration: 1mM): 1.01 ± 0.029 | NP40-soluble protein abundance (concentration: 2mM): 1.1 ± 0.11 | NP40-soluble protein abundance (concentration: 4mM): 0.965 ± 0.061 | NP40-soluble protein abundance (concentration: 6mM): 1 ± 0.056 | NP40-soluble protein abundance (concentration: 8mM): 0.985 ± 0.025 | NP40-soluble protein abundance (concentration: 10mM): 0.957 ± 0.06

F5GWA4 and related entries (UniProt Q9H3F6)
NP40-soluble protein abundance (concentration: 1mM): 0.971 ± 0.032 | NP40-soluble protein abundance (concentration: 2mM): 0.989 ± 0.047 | NP40-soluble protein abundance (concentration: 4mM): 0.998 ± 0.035 | NP40-soluble protein abundance (concentration: 6mM): 0.988 ± 0.041 | NP40-soluble protein abundance (concentration: 8mM): 1 ± 0.013 | NP40-soluble protein abundance (concentration: 10mM): 0.995 ± 0.0062

F5H269 and related entries (UniProt Q9Y485)
NP40-soluble protein abundance (concentration: 1mM): 0.992 ± 0.012 | NP40-soluble protein abundance (concentration: 2mM): 1.01 ± 0.026 | NP40-soluble protein abundance (concentration: 4mM): 1.01 ± 0.039 | NP40-soluble protein abundance (concentration: 6mM): 0.97 ± 0.015 | NP40-soluble protein abundance (concentration: 8mM): 0.964 ± 0.032 | NP40-soluble protein abundance (concentration: 10mM): 1.02 ± 0.031

E9PJF5 and related entries (UniProt Q9HCU9)
NP40-soluble protein abundance (concentration: 1mM): 1.03 ± 0.018 | NP40-soluble protein abundance (concentration: 2mM): 1.05 ± 0.04 | NP40-soluble protein abundance (concentration: 4mM): 1.01 ± 0.012 | NP40-soluble protein abundance (concentration: 6mM): 1 ± 0.016 | NP40-soluble protein abundance (concentration: 8mM): 0.989 ± 0.041 | NP40-soluble protein abundance (concentration: 10mM): 1.02 ± 0.051

E9PQL0 and related entries (UniProt Q86UB9)
NP40-soluble protein abundance (concentration: 1mM): 1 ± 0.016 | NP40-soluble protein abundance (concentration: 2mM): 1 ± 0.019 | NP40-soluble protein abundance (concentration: 4mM): 1.03 ± 0.045 | NP40-soluble protein abundance (concentration: 6mM): 1.04 ± 0.074 | NP40-soluble protein abundance (concentration: 8mM): 1.05 ± 0.066 | NP40-soluble protein abundance (concentration: 10mM): 1.05 ± 0.056
